According to article PMC5661613:

Biological target: T1, PDHA1-Flag (pyruvate dehydrogenase E1 alpha 1 subunit) (UniProt P08559)
T1 sequence: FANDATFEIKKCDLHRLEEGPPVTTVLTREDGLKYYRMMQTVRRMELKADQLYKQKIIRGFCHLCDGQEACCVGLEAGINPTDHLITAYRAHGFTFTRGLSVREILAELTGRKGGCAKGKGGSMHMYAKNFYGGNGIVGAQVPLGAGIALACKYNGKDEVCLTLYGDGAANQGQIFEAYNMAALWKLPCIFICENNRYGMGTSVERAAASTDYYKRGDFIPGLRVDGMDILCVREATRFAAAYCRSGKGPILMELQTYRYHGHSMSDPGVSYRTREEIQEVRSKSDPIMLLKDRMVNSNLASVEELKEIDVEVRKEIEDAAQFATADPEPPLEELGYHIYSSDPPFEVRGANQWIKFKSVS
Assay: co-IP; Flag-tagged PDHA1 co-expressed with HA-tagged SIRT3, SIRT4 or SIRT5 in HeLa cells; lysis in NP-40 buffer (0.1-0.5% NP-40, 150 mM NaCl, 50 mM Tris-HCl pH 7.5); Flag-tagged proteins immunoprecipitated, washed three times in NP-40 buffer; western blot

HA-tagged SIRT3 (enzyme) was tested, and the binding was “binds”.

Results are given in words; binding and its absence hold for the method and conditions named. Binding seen in cells or lysates may run through a third protein. Binding calls can cover weak binding; strength is not graded here. Tags and fused reporters may be left off the sequences shown.
